Test results: patent US10213443B2, “Tetracycline topical formulations, preparation and uses thereof in treating an ocular condition” (Hovione International Ltd., priority 2012, dated 2019)
For at least one compound, name, drawing or mass did not settle the structure.

Test: Particle size distribution by laser diffraction (Malvern MasterSizer 2000)
Assay type: physicochemical
Conditions: minocycline active ingredient before formulation

In the case of `CN(C)c1ccc(O)c2c1C[C@H]1C[C@H]3[C@H](N(C)C)C(O)=C(C(N)=O)C(=O)[C@@]3(O)C(O)=C1C2=O` [Lot 1, minocycline], the “Particle size D10” value is reported as 1.00 microns, the “Particle size D50” value is reported as 4.15 microns and the “Particle size D90” value is reported as 8.94 microns.
With `CN(C)c1ccc(O)c2c1C[C@H]1C[C@H]3[C@H](N(C)C)C(O)=C(C(N)=O)C(=O)[C@@]3(O)C(O)=C1C2=O` [Lot 2, minocycline] the “Particle size D10” value was 0.69 microns, the “Particle size D50” value was 2.00 microns and the “Particle size D90” value was 4.51 microns.
